# The whole screen tested about 320,000 compounds, of which about 22,000 (6.9%) were called active. The shares of active, inactive and inconclusive entries below differ from those in the screen. The call rests on the fitted dose curve; in most records, active means well fitted inhibition curve with a large enough effect; inconclusive means small, poorly fitted or top-dose-only effect, or another doubt; inactive means no such curve, though single readings can be large or run the other way. A potency beside an inconclusive call is a rough fit, not a confirmed value.
# Experiment: Primary qHTS for delayed death inhibitors of the malarial parasite plastid, 96 hour incubation
# Details: P. falciparum luciferase reporter growth; series mostly up to 28.7 µM
# Procedure, shortened: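 96 h incubation, 37 C, 5% CO2, of luciferase-reporter P. falciparum-infected RBCs (2% hematocrit, 0.05% parasitemia final) with test compounds; endpoint luminescence.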
# Potency means the concentration at half of the fitted maximal effect.
row,SMILES,Potency
1,COc1cc(/C=C/C(=O)N(C)CC(=O)Nc2ccccc2Br)cc2c1OCCO2,"inconclusive: 18.5 µM [inhibitor, single point]"
2,C=CCn1c(SCC(=O)Nc2cccnc2Cl)nnc1-c1ccccc1F,inactive
3,O=Cc1c(NCc2ccccc2Cl)c2ccccc2[nH]c1=O,"inconclusive: 18.5 µM [inhibitor, single point]"
4,N#Cc1cnc(SCC(=O)N2CCCC2)nc1N,inactive
5,COc1ccc(NC(=O)Cc2ccc(Cl)c(Cl)c2)cn1,"inconclusive: 9.28 µM [inhibitor, partial curve, poor fit]"
6,Nc1c(/C=C2/C=CC(=O)C(O)=C2)c(=O)nc2sc(CC(=O)N3CCCC3)nn12,inactive
7,O=C(CN(Cc1ccccc1Cl)C(=O)c1ccc(CN2CCOCC2)o1)NCC1CCCO1 (stereo not given),"inconclusive: 0.294 µM [inhibitor, full curve, poor fit]"
8,Cc1cc(OCC(=O)Nc2sc3c(c2C#N)CC(C)(C)NC3(C)C)c(C(C)C)cc1Cl,active: 7.38 µM
9,CCOc1ccc(NC(=O)CSc2nnc(-c3cc(C)[nH]n3)n2N)cc1,"inconclusive: 10.4 µM [inhibitor, single point]"
10,CCn1c(SCC(=O)N2CCN(c3ccccc3)CC2)nc2c(c1=O)SC(C)C2 (stereo not given),"inconclusive: 11.7 µM [inhibitor, partial curve]"
11,C[C@@H]1C[C@H]2OC(=O)C3(CO3)[C@H]2[C@H](O)[C@]2(C)C(=O)C3OC3[C@@H]12 (stereo not given in full),"inconclusive: 18.5 µM [inhibitor, single point]"
12,O=C(/C=C/c1ccc([N+](=O)[O-])cc1)c1ccco1,"inconclusive: 2.94 µM [inhibitor, single point]"
13,Cc1ccc(C)c(N(CC(=O)N/N=C/c2ccc(-c3ccc([N+](=O)[O-])cc3)o2)S(=O)(=O)c2ccccc2)c1,"inconclusive: 18.5 µM [inhibitor, single point]"
14,C=CCNC(=S)NNC(=O)c1cc(O)ccc1O,active: 4.65 µM
15,CCOC(=O)C1=C(c2ccccc2)NC(=O)NC1c1ccc(OC)cc1 (stereo not given),inactive
16,CC(C)n1c(SCC(=O)Nc2ccccc2N2CCOCC2)nc2c1c(=O)n(C)c(=O)n2C,inactive
17,O=C(C1CCCO1)N1CCN(C(=S)Nc2ccc(F)c(Cl)c2)CC1 (stereo not given),inactive
18,COc1cc2c(cc1OC)CN(CC(=O)Nc1cccc(C(F)(F)F)c1)CC2,inactive
19,Cc1ccccc1NC(=O)NCCCN1CCCC1,active: 2.33 µM
20,O=S(=O)(c1cc(Cl)cc(Cl)c1O)N1CCC2(CC1)OCCO2,"inconclusive: 18.5 µM [inhibitor, single point]"
21,CCN(c1ccccc1)S(=O)(=O)c1ccc(Cl)c(NC(=O)CN(C)C2CCN(C)CC2)c1,"inconclusive: 10.4 µM [inhibitor, single point]"
22,O=C(Nc1cc(Cl)ccc1N1CCCC1)C1=NN(c2ccccc2)C(=O)CC1,active: 9.28 µM
23,NS(=O)(=O)c1ccc(N=Nc2ccc(=O)[nH]c2O)cc1,"inconclusive: 4.65 µM [inhibitor, partial curve, poor fit]"
24,O=C(COC(=O)c1ccc(-c2ccc([N+](=O)[O-])cc2)o1)NC(=O)NC12CC3CC(CC(C3)C1)C2,"inconclusive: 5.22 µM [inhibitor, partial curve, poor fit]"

row,SMILES,Potency
1,CCOc1ccc(CNC(=O)CCCC(=O)n2ncc3cc(C)ccc32)cc1,"inconclusive: 4.15 µM [inhibitor, partial curve, poor fit]"
2,CCc1ccccc1NC(=S)N1CCCCCC1,inactive
3,Cc1ccc(NC(=O)Nc2ccc3c(c2)N(C)C(=O)CS3)nc1,"inconclusive: 9.28 µM [inhibitor, single point]"
4,O=C(Nc1cccc(OCC(=O)N2CCOCC2)c1)c1cccc([N+](=O)[O-])c1,active: 7.38 µM
5,Cc1sc2ncnc(SCC(=O)N3CCCC(C(N)=O)C3)c2c1C (stereo not given),inactive
6,Nn1c(SCC(=O)Nc2ccc3c(c2)OCCO3)nnc1-c1cccnc1,"inconclusive: 18.5 µM [inhibitor, single point]"
7,CC(NC(=O)/C(C#N)=C/c1ccc(OCC(=O)O)cc1)c1ccccc1 (stereo not given),"inconclusive: 4.65 µM [inhibitor, partial curve, poor fit]"
8,CN(C)CCCn1c2c(c(SCC(=O)Nc3cccc4ccccc34)nc1=O)CCC2,"inconclusive: 11.7 µM [inhibitor, single point]"
9,CC(C)(C)NC(=O)c1ccc(COc2ccccc2Br)o1,"inconclusive: 0.329 µM [inhibitor, full curve, poor fit]"
10,COc1ccc(CCNC(=O)COC(=O)C23CC4CC(CC(C4)C2)C3)cc1,"inconclusive: 13.1 µM [inhibitor, single point]"
11,C/C(=N\NC(=O)c1cc(-c2ccc(C)s2)nc2ccccc12)c1cccnc1,"inconclusive: 11.7 µM [inhibitor, single point]"
12,CN(C)/C=N/C1=C(C#N)C(c2cccs2)c2ccc3ccccc3c2O1 (stereo not given),inactive
13,COc1cccc(NC(=O)CN(C)C(C)C(=O)Nc2ccc(C(C)=O)cc2)c1 (stereo not given),"inconclusive: 11.7 µM [inhibitor, single point]"
14,O=C(NCc1ccc2c(c1)OCO2)C1COc2ccccc2O1 (stereo not given),"inconclusive: 13.1 µM [inhibitor, single point]"
15,COC(=O)c1ccc(NC(=O)CNc2ccccc2)cc1,inactive
16,CCOc1ccc(N2CCCn3c2nc2c3c(=O)n(CCc3ccccc3)c(=O)n2C)cc1,"inconclusive: 1.65 µM [inhibitor, partial curve, poor fit]"
17,Cc1ccc(NC(=O)CN(C)S(=O)(=O)c2cccc3cccnc23)cc1F,"inconclusive: 18.5 µM [inhibitor, single point]"
18,COc1ccc(S(=O)(=O)N2CCN(C)CC2)cc1NC(=O)c1ccccc1,"inconclusive: 18.5 µM [inhibitor, single point]"
19,COc1cc(/C=C(\C#N)c2nc(-c3cc4ccccc4oc3=O)cs2)ccc1O,"inconclusive: 11.7 µM [inhibitor, single point]"
20,Cc1cc(C)cc(NC(=O)c2sc3nc4n(c(=O)c3c2C)CCC4)c1,inactive
21,COc1cccc(NC(=O)c2ccccc2Oc2ccccc2)c1,"inconclusive: 18.5 µM [inhibitor, single point]"
22,Cc1[nH]c(=O)[nH]c(=O)c1CSc1nnc([C@H](CC(C)C)NC(=O)OC(C)(C)C)o1,"inconclusive: 2.94 µM [inhibitor, partial curve, poor fit]"
23,Cc1ccc(-c2nc3cc(NS(=O)(=O)c4ccc(C)cc4)ccc3o2)cc1,"inconclusive: 16.5 µM [inhibitor, single point]"
24,COC(=O)c1ccc(/C=C/C(=O)c2cccc(OC)c2)cc1,inactive

# Looked up one by one from above:
row,SMILES,Potency
22,Cc1[nH]c(=O)[nH]c(=O)c1CSc1nnc([C@H](CC(C)C)NC(=O)OC(C)(C)C)o1,"inconclusive: 2.94 µM [inhibitor, partial curve, poor fit]"
8,CN(C)CCCn1c2c(c(SCC(=O)Nc3cccc4ccccc34)nc1=O)CCC2,"inconclusive: 11.7 µM [inhibitor, single point]"
1,CCOc1ccc(CNC(=O)CCCC(=O)n2ncc3cc(C)ccc32)cc1,"inconclusive: 4.15 µM [inhibitor, partial curve, poor fit]"
20,Cc1cc(C)cc(NC(=O)c2sc3nc4n(c(=O)c3c2C)CCC4)c1,inactive
14,O=C(NCc1ccc2c(c1)OCO2)C1COc2ccccc2O1 (stereo not given),"inconclusive: 13.1 µM [inhibitor, single point]"

# (listing goes on)

row,SMILES,Potency
1,CC1CCN(c2ccc(C(=O)Nc3ccc4c(c3)OCO4)cc2[N+](=O)[O-])CC1,"inconclusive: 1.04 µM [inhibitor, full curve]"
2,Cc1ccccc1C(=O)Nc1ccccc1NC(=O)c1ccccc1Br,inactive
3,COc1ccc(-c2nc(CN3CCN(Cc4cccc(F)c4)CC3)c(C)o2)cc1,"inconclusive: 18.5 µM [inhibitor, single point]"
4,CC(C)OC(=O)c1ccc(NC(=O)c2cccc(-n3cnnn3)c2)cc1,"inconclusive: 10.4 µM [inhibitor, single point]"
5,COc1ccc(-c2csc(N3CCN(Cc4ccc5c(c4)OCO5)CC3)n2)cc1,inactive
6,Cc1cc(=O)oc2c3c(cc(OCC(=O)NCC(=O)N[C@H](C(=O)O)C(C)C)c12)OC(C)(C)CC3,inactive
7,O=[N+]([O-])c1cc2oc3c(c2c(C=NCc2ccncc2)c1O)CCCC3,"inconclusive: 18.5 µM [inhibitor, partial curve, poor fit]"
8,CC1=NN(c2ccccc2)C(=O)/C1=C/c1c(O)n(-c2ccc(F)cc2)[nH]c1=O,inactive
9,Cc1cc2c(cc3c(=O)n(CC(=O)NCCCN4CC(C)CC(C)C4)ncn32)s1 (stereo not given),inactive
10,Cc1cccc(NC(=O)C2C3C=CC(O3)C2C(=O)O)c1C (stereo not given),"inconclusive: 18.5 µM [inhibitor, single point]"
11,Cc1ccc(OC(=O)c2cc(C)nn2C(C)(C)C)cc1,inactive
12,COc1ccc(NC(=O)c2c3c(nc4ccccc24)CCN(Cc2ccccc2)C3)c(OC)c1,active: 9.28 µM
13,O=C(N/N=C/c1cccs1)c1cccc(NC(=O)c2ccc(Cl)cc2)c1,"inconclusive: 2.62 µM [inhibitor, full curve, poor fit]"
14,CCCCc1n(CC(=O)c2ccc(Cl)cc2)c2ccccc2[n+]1C,"inconclusive: 0.928 µM [inhibitor, partial curve, poor fit]"
15,COc1cccc(/C=N/NC(=O)CN(C)S(=O)(=O)c2ccccc2)c1OC,inactive
16,O=C(/C=C\c1ccc(-c2ccccc2)o1)c1ccccc1,inactive
17,Cc1ccc(OCC(=O)Nc2ccncc2)cc1,"inconclusive: 18.5 µM [inhibitor, single point]"
18,CCOC(=O)C1=C(C)N(C)C(=S)NC1c1c(OCC)ccc2ccccc12 (stereo not given),"inconclusive: 4.65 µM [inhibitor, partial curve, poor fit]"
19,O=C(Cn1cnc2c(nnn2Cc2ccccc2)c1=O)Nc1ccc2c(c1)OCCO2,inactive
20,O=C(Cn1cc(C(F)(F)F)cc(Cl)c1=O)Nc1cc(S(=O)(=O)N2CCOCC2)ccc1Cl,inactive
21,CC1(C)CC(=O)C=C(c2cccc(O)c2)C1=O,"inconclusive: 14.7 µM [inhibitor, single point]"
22,Cc1ccc(C(=O)OC(C)C(=O)Nc2ccc3c(c2)OCO3)c(O)c1 (stereo not given),inactive

# Source: PubChem BioAssay AID504834 (National Center for Advancing Translational Sciences (NCATS), 2011)
